From patent US20050238685A1, “Method of binding a compound to a surface” (priority 2002, published 2005)
Results are given in words; binding and its absence hold for the method and conditions named. Some binding calls cover weakened binding; strength is not graded here.

The chains behind the UniProt entries cited, without tags or fusion partners. Residues count along the entry.
UniProt P08659: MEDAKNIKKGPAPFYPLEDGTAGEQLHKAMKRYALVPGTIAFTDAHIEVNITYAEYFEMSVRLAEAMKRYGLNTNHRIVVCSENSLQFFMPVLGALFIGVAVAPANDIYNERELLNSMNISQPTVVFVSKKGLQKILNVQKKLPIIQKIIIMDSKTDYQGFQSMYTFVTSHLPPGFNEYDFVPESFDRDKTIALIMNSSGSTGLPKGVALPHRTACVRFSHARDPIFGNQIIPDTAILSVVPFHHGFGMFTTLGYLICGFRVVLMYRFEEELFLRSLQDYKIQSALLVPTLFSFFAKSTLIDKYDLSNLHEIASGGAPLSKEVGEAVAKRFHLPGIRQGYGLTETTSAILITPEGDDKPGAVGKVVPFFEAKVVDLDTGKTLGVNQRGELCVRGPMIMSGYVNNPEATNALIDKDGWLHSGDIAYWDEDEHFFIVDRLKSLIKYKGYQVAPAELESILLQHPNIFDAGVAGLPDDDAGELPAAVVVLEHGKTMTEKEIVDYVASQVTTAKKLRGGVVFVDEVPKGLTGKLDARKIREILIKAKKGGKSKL
UniProt P13006, residues 23-605: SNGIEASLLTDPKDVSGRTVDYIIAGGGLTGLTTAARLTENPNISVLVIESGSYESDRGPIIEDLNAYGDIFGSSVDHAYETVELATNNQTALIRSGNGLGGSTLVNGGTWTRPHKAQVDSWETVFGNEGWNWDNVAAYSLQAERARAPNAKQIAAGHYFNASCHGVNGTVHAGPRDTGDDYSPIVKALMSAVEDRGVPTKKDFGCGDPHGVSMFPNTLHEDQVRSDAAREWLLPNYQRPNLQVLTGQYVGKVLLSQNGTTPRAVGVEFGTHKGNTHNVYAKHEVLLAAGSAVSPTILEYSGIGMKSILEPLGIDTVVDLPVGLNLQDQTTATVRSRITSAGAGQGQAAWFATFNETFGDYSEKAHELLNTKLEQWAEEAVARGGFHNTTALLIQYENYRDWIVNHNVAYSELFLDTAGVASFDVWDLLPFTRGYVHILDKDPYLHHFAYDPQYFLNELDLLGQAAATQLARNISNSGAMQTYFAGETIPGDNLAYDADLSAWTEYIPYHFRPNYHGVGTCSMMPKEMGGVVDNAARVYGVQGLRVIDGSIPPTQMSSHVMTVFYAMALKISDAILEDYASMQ
UniProt P00433, residues 31-338: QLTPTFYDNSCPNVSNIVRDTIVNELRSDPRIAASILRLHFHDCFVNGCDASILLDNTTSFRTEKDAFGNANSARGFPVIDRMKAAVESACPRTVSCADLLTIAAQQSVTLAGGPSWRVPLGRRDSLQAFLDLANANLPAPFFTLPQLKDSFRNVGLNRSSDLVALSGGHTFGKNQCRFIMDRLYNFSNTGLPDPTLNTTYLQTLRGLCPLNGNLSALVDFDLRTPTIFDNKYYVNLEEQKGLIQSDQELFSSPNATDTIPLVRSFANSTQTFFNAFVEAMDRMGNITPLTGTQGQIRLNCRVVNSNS
UniProt P05187, residues 23-506: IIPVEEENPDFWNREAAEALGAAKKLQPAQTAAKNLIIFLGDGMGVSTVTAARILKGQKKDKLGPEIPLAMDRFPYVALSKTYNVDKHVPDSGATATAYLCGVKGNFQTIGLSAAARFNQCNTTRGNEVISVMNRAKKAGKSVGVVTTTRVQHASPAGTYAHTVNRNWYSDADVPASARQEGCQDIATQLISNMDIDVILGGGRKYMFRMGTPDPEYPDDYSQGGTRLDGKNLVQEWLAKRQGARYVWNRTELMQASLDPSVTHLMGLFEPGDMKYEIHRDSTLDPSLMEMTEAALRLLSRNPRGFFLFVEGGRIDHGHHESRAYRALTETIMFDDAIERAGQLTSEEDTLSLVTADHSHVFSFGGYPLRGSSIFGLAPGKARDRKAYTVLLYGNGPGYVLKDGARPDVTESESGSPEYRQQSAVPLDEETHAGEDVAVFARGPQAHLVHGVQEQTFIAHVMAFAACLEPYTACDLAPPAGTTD

Columns and labels:
[1] = target: T1, SC3 hydrophobin of Schizophyllum commune (Schizophyllum commune) (UniProt P16933); test: enzyme on hydrophobin-coated microtiter wells, washed; luminescence with ATP
T1 sequence (looked up): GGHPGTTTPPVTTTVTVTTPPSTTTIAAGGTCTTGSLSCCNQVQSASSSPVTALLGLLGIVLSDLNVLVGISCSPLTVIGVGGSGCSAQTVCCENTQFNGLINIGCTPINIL

[2] = target: T2, SC4 hydrophobin of Schizophyllum commune (Schizophyllum commune) (UniProt P16934); test: as above
T2 sequence: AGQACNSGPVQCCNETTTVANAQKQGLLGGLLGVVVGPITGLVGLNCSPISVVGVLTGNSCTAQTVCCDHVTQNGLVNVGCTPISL

[3] = target: T1, SC3 hydrophobin of Schizophyllum commune (Schizophyllum commune); test: hydrophobin-coated colloidal TEFLON added to enzyme solution; circular dichroism and centrifugation
[4] = target: T2, SC4 hydrophobin of Schizophyllum commune (Schizophyllum commune); test: as above
[5] = target: T1, SC3 hydrophobin of Schizophyllum commune (Schizophyllum commune); test: enzyme on hydrophobin-coated TEFLON sheet, rinsed; o-dianisidine colour reaction stops on removal of the sheet
[6] = target: T2, SC4 hydrophobin of Schizophyllum commune (Schizophyllum commune); test: as above
[7] = target: T1, SC3 hydrophobin of Schizophyllum commune (Schizophyllum commune); test: enzyme on SC3-coated TEFLON, rinsed; activity by spectrophotometry, constant after removal of the surface
[8] = target: T1, SC3 hydrophobin of Schizophyllum commune (Schizophyllum commune); test: enzyme on hydrophobin-coated microtiter wells, washed; chemiluminescent substrate
[9] = target: T2, SC4 hydrophobin of Schizophyllum commune (Schizophyllum commune); test: as above

Measured: binding

firefly luciferase (Roche, cat no. 411523) (from UniProt P08659 1-550) (enzyme)
binds: [1] | [2]

glucose oxidase from Aspergillus niger (from UniProt P13006 23-605) (enzyme)
binds: [3] | [4] | [5] | [6] | [7]

horseradish peroxidase (from UniProt P00433 31-338) (enzyme)
binds: [5] | [6] | [7]

human placental alkaline phosphatase (from UniProt P05187 23-506) (enzyme)
binds: [8] | [9]
